# In PubChem BioAssay AID445 (National Center for Advancing Translational Sciences (NCATS), 2006):
# The other results are listed elsewhere or left out. These are further read-outs of the screen, such as a control signal, another cell line or another target. No call is given for them. Most of these compounds were active or inconclusive in the main read-out, so they are no random draw. Words in brackets tell the shape of the fitted curve; partial curves, single points and poor fits give uncertain potencies.
# Assay: IkB Signaling
# Details: ABC-DLBCL IkBa-CBG/CBR dual luciferase ratio (green luciferase fused to IkBa over red control in OCI-Ly3 lymphoma cells), 4 h
# Summary of the method: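 Curves were fitted separately to fusion (green), unfused (red) and ratio luminescence, then classed by r2, magnitude and activity. Cells: OCI-Ly3, 4 h compound plus doxycycline at 37C; 10 uM MG-132 defined full response.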
# [1] = measured here: control luc red channel unless noted
compound,measurement,setting,value
COCCCN1C(=O)c2[nH]nc(-c3ccccc3O)c2C1c1cccc(Cl)c1 (centres undefined),AC50,[1],"31.6 µM [falling, single point]"
Cc1ccc2nc3sc(C(=O)NCCCN(C)c4ccccc4)cc3cc2c1,AC50,[1],"10 µM [falling, partial curve]"
Clc1ccc(-c2nc(-c3ccccn3)no2)cc1Cl,AC50,[1],"2.51 µM [falling, full curve]"
COc1ccccc1CNC(=O)CCC1N=C2c3ccccc3N=C(SCc3ccc(C)cc3C)N2C1=O (centres undefined),AC50,[1],"12.6 µM [falling, partial curve]"
COc1ccc(NC(=O)CN(c2cc(C)cc(C)c2)S(=O)(=O)c2c(C)noc2C)cc1Cl,AC50,[1],"15.8 µM [falling, partial curve]"
CC(C)(C)C1CCc2nc(NC(=O)Cc3cn4ccsc4n3)sc2C1 (centres undefined),AC50,[1],"39.8 µM [falling, single point]"
O=C(NCCN1CCCCC1)c1ccc(I)cc1,AC50,[1],"15.8 µM [rising, partial curve]"
COc1ccc(-c2nc(SCC(=O)Nc3ccc4c(c3)OCCO4)c(-c3ccc(C)cc3)[nH]2)cc1OC,AC50,[1],"10 µM [falling, partial curve]"
COc1ccc(NC(=O)CSc2ccc3nc(-c4ccccc4)cn3n2)cc1OC,AC50,[1],"15.8 µM [rising, single point]"
Cc1ccccc1Nc1c(-c2ccc(N3CCOCC3)cc2)nc2ccccn12,AC50,[1],"25.1 µM [falling, partial curve]"
Cc1ccc(CNC(=O)CN2C(=O)COc3ccc(S(=O)(=O)Nc4ccccc4)cc32)cc1,AC50,[1],"25.1 µM [falling, partial curve]"
c1ccc(-c2cc(-c3nn4c(-c5ccco5)nnc4s3)c3ccccc3n2)cc1,AC50,[1],"2.51 µM [falling, full curve]"
CCCCNC(=O)c1ccc2c(c1)ncn2-c1cc(OC)ccc1OC,AC50,[1],"7.94 µM [rising, single point]"
O=C(Nc1ccccc1F)c1ccc2c(Cl)c3c(nc2c1)CCC3,AC50,[1],"1.26 µM [falling, partial curve]"
CCOc1ccccc1CNCc1cccn1-c1nnc(N2CCN(c3ccccc3)CC2)s1,AC50,[1],"20 µM [falling, single point]"
COc1ccc2[nH]cc(CCNc3nc(-c4cccnc4)nc4ccccc34)c2c1,AC50,[1],"3.16 µM [falling, partial curve] [measured here: IkB-luc green channel]"
O=C(c1noc2c1CCCC2)N1CCN(C(c2ccccc2)c2ccccc2)CC1,AC50,[1],"7.94 µM [falling, partial curve]"
Cc1ccc2nc(NC(=O)CSc3nc4c(c(=O)n3C)SC(C)C4)sc2c1 (centres undefined),AC50,[1],"6.31 µM [falling, partial curve]"
COc1ccccc1NC(=O)CN1CCN(c2ccc(Cl)cc2)CC1,AC50,[1],"12.6 µM [falling, partial curve]"
NC(=O)c1oc2ccc(Cl)cc2c1N,AC50,[1],"15.8 µM [falling, partial curve]"
COc1ccc(S(=O)(=O)Nc2ccc(-c3cn4c(C)csc4n3)cc2)cc1,AC50,[1],"0.794 µM [falling, full curve]"
COc1ccccc1S(=O)(=O)Cc1ccc(C(=O)NCc2ccc(Cl)cc2)o1,AC50,[1],"15.8 µM [falling, single point]"
COc1cc(NC(=O)CCc2c(C)nn(-c3ccc4nnc(C)n4n3)c2C)cc(OC)c1OC,AC50,[1],"7.94 µM [rising, partial curve, poor fit]"
CCOC(=O)C1CCN(C(=O)COc2cccc(C)c2)CC1,AC50,[1],"3.16 µM [falling, partial curve]"
O=C(CSc1nc2c([nH]c3ccccc32)c(=O)n1-c1ccccc1)N1CCc2ccccc21,AC50,[1],"31.6 µM [rising, partial curve]"
COc1ccc(C2C(=O)N(C3CCCCCC3)CC(=O)N2Cc2ccc(C)cc2)cc1 (centres undefined),AC50,[1],"39.8 µM [falling, single point]"
O=C1CC(c2nc(-c3ccc(Cl)cc3)no2)CN1c1ccc2c(c1)OCCO2 (centres undefined),AC50,[1],"25.1 µM [falling, single point]"
O=C1C(c2ccc(F)cc2)N(CCc2ccc(Cl)cc2)C(=O)CN1C1CCCCCC1 (centres undefined),AC50,[1],"5.01 µM [falling, partial curve, poor fit]"
CC(C)(C)CC(=O)NCC(c1ccc2c(c1)OCO2)N1CCN(c2ccccc2)CC1 (centres undefined),AC50,[1],"31.6 µM [falling, partial curve]"
CC(=O)c1ccc(NC(=O)c2cc(-c3ccc(C)s3)nc3ccccc23)cc1,AC50,[1],"20 µM [falling, single point]"
O=C(CSc1nccn1-c1ccc(Cl)cc1)Nc1ccc(Cl)c(Cl)c1,AC50,[1],"20 µM [falling, single point]"
COc1cc(NC(=O)N2c3ccccc3Sc3ccccc32)cc(OC)c1,AC50,[1],"10 µM [falling, partial curve]"
CN1CCN(c2ccc(Cl)cc2NC(=O)C2COc3ccccc3O2)CC1 (centres undefined),AC50,[1],"7.94 µM [falling, full curve]"
CCOC(=O)N1CCc2c(sc3c2c(=O)n(CCc2ccccc2)c(=O)n3CC(=O)Nc2ccc(C)cc2)C1,AC50,[1],"10 µM [falling, partial curve]"
COc1ccccc1C(=O)NCC(c1cccnc1)N1CCc2ccccc2C1 (centres undefined),AC50,[1],"0.158 µM [falling, full curve]"
Cc1cccc(N2CCN(C(=O)CN3C(=O)CSc4c3c(C)nn4-c3ccccc3)CC2)c1C,AC50,[1],"20 µM [falling, partial curve]"
CCCOC(=O)c1c(NC(=O)C(C)Sc2nc(-c3ccccc3)cc(C(F)(F)F)n2)sc(C(=O)N(C)C)c1C (centres undefined),AC50,[1],"10 µM [falling, partial curve]"
CN1CCc2c(sc(NC(=O)CSc3ccccc3)c2-c2nc3ccccc3s2)C1,AC50,[1],"10 µM [rising, partial curve, poor fit]"
O=C(N/N=C\c1ccc([N+](=O)[O-])o1)c1ccc(O)cc1,AC50,[1],"2 µM [falling, full curve]"
Cc1c(C)n(C(=O)CN2CCN(c3ccccn3)CC2)c2ccccc12,AC50,[1],"12.6 µM [falling, partial curve]"
COc1ccc(CCNC(=O)C2CCC(CNS(=O)(=O)c3ccc(C)cc3)CC2)cc1OC (centres undefined),AC50,[1],"1.26 µM [rising, full curve, poor fit]"
Cc1ccc(Cl)cc1NC(=O)Nc1nnc(N(C)Cc2ccccc2)s1,AC50,[1],"10 µM [falling, partial curve]"
CCC1CN(C(=O)N2CCC(C(=O)NCCc3ccccc3Cl)CC2)c2cc(C)ccc2O1 (centres undefined),AC50,[1],"25.1 µM [falling, single point]"
CCCCC(=O)NCCc1c(Cc2ccccc2)[nH]c2ccccc12,AC50,[1],"25.1 µM [falling, partial curve]"
COc1cc(NC(=O)CN2c3ccccc3S(=O)(=O)c3ccccc32)cc(OC)c1,AC50,[1],"2.51 µM [falling, full curve]"
COCCNC(=O)CSc1nc(-c2cc(OC)c(OC)c(OC)c2)[nH]c1-c1ccc(Cl)cc1,AC50,[1],"25.1 µM [falling, single point]"
COc1cc(NCC[C@@H]2CCCCN2)c2ncccc2c1,AC50,[1],"3.16 µM [falling, partial curve]"
Cc1ccc(C(=O)CSc2nc(-c3ccccc3)nc3c2CCCC3)c(C)c1,AC50,[1],"39.8 µM [falling, partial curve]"
C#CCOC(=O)c1ccccc1C(=O)n1nnc2ccccc21,AC50,[1],"12.6 µM [falling, partial curve]"
Cn1cc(/C=N/n2cnc3scc(-c4ccc(Cl)cc4)c3c2=O)c2ccccc21,AC50,measured here: IkB-luc green channel,"3.16 µM [rising, partial curve]"
same,AC50,measured here: control luc red channel,"1 µM [rising, full curve, poor fit]"
COc1cccc(-c2ccc3ncnc(NCc4ccccc4)c3c2)c1,AC50,[1],"3.98 µM [falling, partial curve]"
CCOc1ccccc1NC(=O)c1ccc2c(Cl)c3c(nc2c1)CCC3,AC50,[1],"1.26 µM [falling, full curve]"
CC(C)(C)c1ccc(C(=O)Nc2ccc3c(c2)CCCN3C(=O)c2cccs2)cc1,AC50,[1],"3.98 µM [falling, full curve]"
CCn1c(SCC(N)=O)nnc1-c1cc2c(C)nn(-c3ccccc3)c2s1,AC50,[1],"12.6 µM [falling, partial curve]"
Cc1ccc(NC(=O)c2nc(S(C)(=O)=O)ncc2N(Cc2ccco2)Cc2cccs2)c(C)c1,AC50,[1],"10 µM [falling, partial curve]"
CC(=O)N1CCc2nc3sc(C(=O)c4ccc(F)cc4)c(N)c3c(C(F)(F)F)c2C1,AC50,[1],"31.6 µM [falling, single point]"
Cc1ccc(Nc2nc(N)nc(CN3CCN(Cc4ccc5c(c4)OCO5)CC3)n2)cc1Cl,AC50,[1],"12.6 µM [falling, partial curve]"
CCc1ccc(NC(=O)C(=O)NCC(c2cccnc2)N2CCN(c3ccc(F)cc3)CC2)cc1 (centres undefined),AC50,[1],"20 µM [falling, partial curve]"
Cc1cc2cc(CN(Cc3ccco3)C(=O)NCc3ccccc3)c(=O)[nH]c2cc1C,AC50,[1],"31.6 µM [falling, partial curve]"
Cc1nnc(N2CCC(C(=O)N3CCCCC3)CC2)c2nn(-c3ccc(Cl)cc3)c(C)c12,AC50,[1],"6.31 µM [falling, partial curve]"
Cc1ccc(OCCCCn2nnc3sc4c(c3c2=O)CCCC4)cc1,AC50,[1],"39.8 µM [falling, single point]"
COc1cc(OC)cc(C(=O)Nc2ncc3c(n2)CC(C)(C)CC3=O)c1,AC50,[1],"7.94 µM [falling, partial curve]"
CCC(c1nnnn1C(C)(C)CC)N(CCCO)Cc1cc2cc(C)cc(C)c2[nH]c1=O (centres undefined),AC50,[1],"31.6 µM [rising, single point] [measured here: IkB-luc green channel]"

# In a second layout: entries from further up
compound	measurement	setting	value
c1ccc(-c2cc(-c3nn4c(-c5ccco5)nnc4s3)c3ccccc3n2)cc1	AC50	[1]	2.51 µM [falling, full curve]
COc1ccccc1S(=O)(=O)Cc1ccc(C(=O)NCc2ccc(Cl)cc2)o1	AC50	[1]	15.8 µM [falling, single point]
O=C1CC(c2nc(-c3ccc(Cl)cc3)no2)CN1c1ccc2c(c1)OCCO2 (centres undefined)	AC50	[1]	25.1 µM [falling, single point]
CC(=O)N1CCc2nc3sc(C(=O)c4ccc(F)cc4)c(N)c3c(C(F)(F)F)c2C1	AC50	[1]	31.6 µM [falling, single point]

# Random excerpt: 2 entries already listed
compound,measurement,setting,value
CCCOC(=O)c1c(NC(=O)C(C)Sc2nc(-c3ccccc3)cc(C(F)(F)F)n2)sc(C(=O)N(C)C)c1C (centres undefined),AC50,[1],"10 µM [falling, partial curve]"
O=C(N/N=C\c1ccc([N+](=O)[O-])o1)c1ccc(O)cc1,AC50,[1],"2 µM [falling, full curve]"
